{"source": "PubChem BioAssay AID1259308 (NCATS, 2017)", "aim": "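Knock-downs that increase output of a recombinant reporter protein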 (primary screen)", "cell system": "human HEK293 embryonic kidney cells stably expressing firefly luciferase (HEK-CMV-Luc2-Hygro)", "knock-down reagent": "single siRNA against human genes, 0.8 pmol siRNA per well", "duration": "72 h", "detection": "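Luciferase light (ONE-Glo) measured on one replicate plate set and viability (CellTiter-Glo) on the other, scaled to a negative control siRNA, with robust z-scores and luciferase per cell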", "scale": "total luciferase, z-score: higher = more reporter protein produced", "active means": "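Active when the median/MAD z-score for overall luciferase is greater than 3; a gene was taken forward for validation with new siRNAs if at least two of its three siRNAs passed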", "meaning of the calls": "active = raised luciferase; inactive = no rise", "note": "In all, the deposit lists about 59,000 reagents; shown is a random part of them. About 1,510 of them (2.6%) were called active. 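Calls use total luciferase alone and ignore viability, so some active siRNAs may act by altering cell number.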 The numbers tell different reagents against one gene apart. Further read-outs or replicates are left out here. Reagent sequences are not shown."}
{"target gene": "RPS6KB1", "siRNA no.": 1, "total luciferase, z-score": -1.21, "Call": "inactive"}
{"target gene": "RPS6KB1", "siRNA no.": 2, "total luciferase, z-score": -0.921, "Call": "inactive"}
{"target gene": "RPS6KB1", "siRNA no.": 3, "total luciferase, z-score": 0.27, "Call": "inactive"}
{"target gene": "CA7", "siRNA no.": 1, "total luciferase, z-score": 0.321, "Call": "inactive"}
{"target gene": "CA7", "siRNA no.": 2, "total luciferase, z-score": 0.922, "Call": "inactive"}
{"target gene": "CA7", "siRNA no.": 3, "total luciferase, z-score": 1.1, "Call": "inactive"}
{"target gene": "ZNF562", "siRNA no.": 1, "total luciferase, z-score": 2.88, "Call": "inactive"}
{"target gene": "ZNF562", "siRNA no.": 2, "total luciferase, z-score": 3.71, "Call": "active"}
{"target gene": "ZNF562", "siRNA no.": 3, "total luciferase, z-score": -0.46, "Call": "inactive"}
{"target gene": "NBPF7P", "siRNA no.": 1, "total luciferase, z-score": 3.46, "Call": "active"}
{"target gene": "NBPF7P", "siRNA no.": 2, "total luciferase, z-score": -0.783, "Call": "inactive"}
{"target gene": "NBPF7P", "siRNA no.": 3, "total luciferase, z-score": 0.17, "Call": "inactive"}
{"target gene": "HRH4", "siRNA no.": 1, "total luciferase, z-score": 1.03, "Call": "inactive"}
{"target gene": "HRH4", "siRNA no.": 2, "total luciferase, z-score": 2.5, "Call": "inactive"}
{"target gene": "HRH4", "siRNA no.": 3, "total luciferase, z-score": -0.604, "Call": "inactive"}
{"target gene": "STIM2", "siRNA no.": 1, "total luciferase, z-score": -0.165, "Call": "inactive"}
{"target gene": "STIM2", "siRNA no.": 2, "total luciferase, z-score": 0.179, "Call": "inactive"}
{"target gene": "STIM2", "siRNA no.": 3, "total luciferase, z-score": 2.42, "Call": "inactive"}
{"target gene": "C6orf120", "siRNA no.": 1, "total luciferase, z-score": -0.852, "Call": "inactive"}
{"target gene": "C6orf120", "siRNA no.": 2, "total luciferase, z-score": -1.49, "Call": "inactive"}
{"target gene": "C6orf120", "siRNA no.": 3, "total luciferase, z-score": -0.153, "Call": "inactive"}

Individual results from the list.
For “total luciferase, z-score”, ZNF562 #1 has 2.88
Under “Call”, ZNF562 #2 reads active
Result for NBPF7P #2 under “total luciferase, z-score”: -0.783
Value of NBPF7P #1 in “Call”: active

Next results follow:
{"target gene": "OLR1", "siRNA no.": 1, "total luciferase, z-score": -1.07, "Call": "inactive"}
{"target gene": "OLR1", "siRNA no.": 2, "total luciferase, z-score": 0.866, "Call": "inactive"}
{"target gene": "OLR1", "siRNA no.": 3, "total luciferase, z-score": -1.94, "Call": "inactive"}
{"target gene": "FAM89A", "siRNA no.": 1, "total luciferase, z-score": 0.656, "Call": "inactive"}
{"target gene": "FAM89A", "siRNA no.": 2, "total luciferase, z-score": 0.621, "Call": "inactive"}
{"target gene": "FAM89A", "siRNA no.": 3, "total luciferase, z-score": -1.73, "Call": "inactive"}
{"target gene": "ERP44", "siRNA no.": 1, "total luciferase, z-score": 0.012, "Call": "inactive"}
{"target gene": "ERP44", "siRNA no.": 2, "total luciferase, z-score": 4.95, "Call": "active"}
{"target gene": "ERP44", "siRNA no.": 3, "total luciferase, z-score": -0.539, "Call": "inactive"}
{"target gene": "KRT85", "siRNA no.": 1, "total luciferase, z-score": 1.46, "Call": "inactive"}
{"target gene": "KRT85", "siRNA no.": 2, "total luciferase, z-score": -0.389, "Call": "inactive"}
{"target gene": "KRT85", "siRNA no.": 3, "total luciferase, z-score": 0.283, "Call": "inactive"}
